The values that follow come from US11168052B2, “Carbamate derivative compounds, processes for preparing them and their uses” (BIO-PHARM SOLUTIONS CO., LTD., priority 2016, dated 2021).

Series [1] has as its system CFA-induced pain model in rats. Put plainly: Antiallodynic activity on Complete Freund's Adjuvant (CFA)-induced inflammatory pain model. It is filed as in vivo, Sprague-Dawley rats. Particulars: intraperitoneally. Here is the method: Male, Sprague-Dawley rats (210-250 g, Nara Bio, Korea) were habituated for 1 week before surgery and allowed free access to food and water throughout the experimentation. Room temperature and humidity were maintained at 24±2 and 50±10%, respectively.
CFA-induced inflammatory pain was induced by the procedure of Nagakura et al. (2003) and Gregory P. et al. (2010) with minor modifications. CFA (sigma, USA) was injected in the right plantar with a 100 ul volume under gaseous anesthesia with isoflurane. Sham controls were injected with 100 ul of saline, and preparation of the vehicle controls were identical to the group treated with compound, except for administration of vehicles without indentical to the vihecle control group.
Tactile sensitivity (Mechanical allodynia) was evaluated using von Frey monofilaments before and after treatment, and animals were include in the study only if the withdrawal threshold value was less than 4 g. One week after CFA injection, CFA-infused animals, sham-operated animal, and vehicle-operated animals were tested for tactile sensitivity with von Frey monofilaments, with 3 trials for each animal. All Animals were placed in a stainless steel mashe chamber and habituated for 30 min in the test cage. The tactile sensitivity for ipsilateral hind paw was measured using the up-and-down method (Dixon, 1980) with seven von Frey monofilaments (0.4, 1, 2, 4, 6, 8, and 15 g) to 3 trials. The tactile sensitivity test was followed by Dixon's method (Dixon, 1980). The 50% paw withdrawal threshold for each paw was calculated using the following formula: [Xth]log=[vFr]log+ky where [vFr] is the force of the last von Frey used, k=0.2249 which is the average interval (in log units) between the von Frey monofilaments, and y is a value that depends upon the pattern of withdrawal responses (Dixon, 1980).
Antiallodynic effect of compounds was evaluated at the dose of 50 mg/kg (n=4-6), intraperitoneally administrated in a volume of 5 ul/g bw in a vehicle of 30% (v/v) PEG or 20% (v/v) Tween 80. The test was performed peak time of efficacy (0.5 hr) after compound administration.
The relative values compared to the sham (% control) were calculated and shown in Table 5, which show an antiallodynic effect of Compound 1 on CFA-induced pain model in rats.

Series [2] relates to MES (electroshock) seizure in mice. Kind of series: Anti-epilepsy activity, MES test in mouse. The format is in vivo, ICR mice. On the procedure: (§1) In the MES test (Ref., G. Villetti et al. Neuropharmacology 40(2001) 866-878), an electrical stimulus (mice: 50 mA, 60 Hz, 0.2 sec, and rats: 150 mA, 60 Hz, 0.2 sec in the test animal) supplied by an 11A Shocker (IITC Life Science Company) was delivered through corneal electrodes. All mice or rats assigned to any electroshock at peak time were treated with each test compound sample which was dissolved in 20% tween 80 prepared by saline solvent applied orally before the test. […] Three doses of the test sample were administered orally to 9-18 animals (3-6 mice per dose) for evaluating the respective doses at which 50% of the animals were protected from seizure (ED50). The ED50 value (median effective dose) was calculated by Litchfield and Wicoxon log-probit method which is a dose-response relationship. Experimental animals, male ICR mice and male SD rats, were purchased from OrientBio, Samtako, or Nara Biotech, Korea, and housed in cages (4-5 mice or 3 rats per cage) for 4-5 days. The range of mice body weight was between 19 and 25 grams and range of rats body weight was between 100 and 130 grams.

Series [3] deals with MES (electroshock) seizure in rats. Put plainly: Anti-epilepsy activity, MES test in rats. The format is in vivo, SD rats. On the procedure: as §1
For series [4], the system named is PTZ (Pentylenetetrazol)-induced clonic seizure in rats. Put plainly: Anti-epilepsy activity, scPTZ test in rats. The format is in vivo, SD rats. From the text:
(§2) In this experiment, each test compound sample was formulated as described in Biological Experimental Example 1, and administered intraperitoneally to the test animals (mice; ICR or Rat; SD); Experimental animals, male ICR mice and male SD rats, were purchased from OrientBio or Nara biotech, Korea, and housed 4-5 mice per a cage for 4-5 days. The range of mice body weight was used between 19 and 26 grams and range of rats body weight was used between 100 and 130 grams. After Peak time (0.5, 1, 2 and 4 hr) from the administration, PTZ (Pentylenetetrazol) was administered subcutaneously in the concentration capable of inducing 97% intermittent convulsions (mice: 100-110 mg/kg?bw, 10 μl/g, or rats: 90-110 mg/kg?bw, 2 μl/g). If clonic seizure was not observed for at least 30 minutes in the PTZ administered animal, it can be considered that the test compound has anti-epilepsy activity. The median effective dose (ED50) is determined using 6 animals per a concentration (total three different concentrations), and calculated by Litchfield and Wicoxon log-probit method which is a dose-response relationship.

Series [5] deals with Lithium-pilocarpine induced seizure in rats. Put plainly: Lithium-pilocarpine induced epilepsy test (LI-PILO), prevention test. The format is in vivo, Sprague-Dawley rats. The settings on record: i.p. On the procedure: Male Sprague-Dawley rats (purchased from Orient Bio Inc. Korea) of body weight 175 grams were used for these studies and 3 rats per cage were housed for 4-5 days. On the day prior to SE, rats received 127 mg/kg lithium chloride (Sigma, St. Louis, Mo., U.S.A.) intraperitoneally (i.p.). Approximately 18-20 h following this treatment, rats were given an i.p. injection of the concentration capable of inducing 97% intermittent convulsions pilocarpine(Sigma, 30-43 mg/kg). An i.p. injection of 2 mg/kg methyl-scopolamine (Sigma) was administered 30 min prior to pilocarpine to block the effects of the muscarinic agonist on peripheral cholinergic receptors. Test drugs were dissolved in 20% tween80 (Sigma).
The drugs were administered intraperitoneally (i.p.) in a volume of 2 μl/g body weight. Pharmacological effects of all of the test materials were evaluated to compare test groups (n=6) with a control group (n=6). Control group was administered vehicle only. The efficacy was measured 0.5, 1, 2, or 4 hours after the administration of the test material. The time point that the most animals were protected was defined as peak time and the ED50 was determined at peak time. The animals were then transferred to observation cages and observed continuously for 90 min Seizure was elicited in approximately 95% of the control group. Protection was defined as complete absence of seizure grade 3-5 (Racine scale; Racine, 1972) over the 90-min observation period. The effective dose of the compound necessary to protect 50% of the animals against seizures compared to controls (i.e., ED50) was determined by a curve fitting program (Excel 2007, Microsoft).

Series [6] concerns PTZ (Pentylenetetrazol)-induced clonic seizure in mice. Kind of series: Anti-epilepsy activity, scPTZ test in mouse. The format is in vivo, ICR mice.
From the text: as §2

The test system of series [7] is Picrotoxin (PIC)-induced clonic seizure in mice. Kind of series: Chemical induced seizure model (PIC). It is filed as in vivo, ICR mice. Here is the method:
Picrotoxin (PIC) were used to induce the behavioral seizures in the experiments. Male ICR mice (purchased from Orient Bio Inc. Korea) of body weight 19-26 g (mice) were used for these studies. The test materials were administered intraperitoneal (ip) route in a volume of 10 ul/g (mice) weight in rats or mice, respectively. Pharmacological effects of the test materials were evaluated to compared test groups (n=6) with a control group (n=6). Control group was administrated vehicle, only. The peak time was determined by administration of test material's random dose for 0.5, 1, 2, 4 hour. The time that the most protect was defined as a peak time and ED50 was determined by other dose administration at the peak time. Chemical (PIC) was dissolved in 0.9% saline and administered subcutaneously (s.c.) at its CD97 (convulsive dose 97%), the dose of Chemical (PIC) that produced clonic seizures in 97% into a loose fold of skin in the midline of the neck in a volume of 10 ul/g (mice) body weight. The animals were then transferred to observation cages and observed continuously for 45 min. Clonic seizure was elicited in approximately 97% of control group. Protection was defined as a complete absence of clonic seizure over the 45-min observation period. The effective dose of compound necessary to protect against generalized convulsive seizures to 50% of controls (i.e., ED50) was determined by log probit analysis using SPSS software program (SPSS Inc.). (Reference; White H. S., J. H. Woodhead, K. S. Wilcox, J. P. Stables, H. J. Kupferberg, and H. H. Wolf. General Principles; Discovery and Preclinical Development of Antiepileptic Drugs. In: R. H. Levy, R. H. Mattson, B. S. Meldrum, and E. Perucca, eds. Antiepileptic Drugs, 5th Ed. Lippincott Williams & Wilkins, Philadelphia 2002: pp. 36-48.) The obtained results are shown in following Table 10.

Series [8] concerns acetic acid-induced writhes in ICR mice. Put plainly: Writhing test (acetic acid). The format is in vivo. Particulars: po. Here is the method:
To examine the pain relief effect of the carbamate compounds, a writhing test was conducted, referring to Fischer, L. G. et al. (2008).
ICR mice (male, 24-28g; Orient Bio, Korea) were habituated before test (in test room) for 1 hour. Animals were fasted 2 hr before administration of compounds. Each of compounds was orally administered at the three dose, 10 ul/g, bw (n=3-5/group). All compounds were dissolved in a vehicle of 30% (v/v) PEG 400 or 20% (v/v) Tween 80. The control group was treated the vehicle without compounds.
0.2-2 hour after the administration of compounds, 0.6% acetic acid at the dose of 10 ul/g by bodyweight was injected into the mice Animals were habituated in the cage for 5 min. 5 min after habituation, the number of writhes (abdominal constriction) was counted for 15 min, referring to Korzeniewska-Rybicka, I. et al. (1998) and compared with that of a control.
The relative values compared to the control (% control) were calculated and shown in […]
For orientation: In writhing tests, fewer writhes than in controls are read as antinociception.

Regarding `NC(=O)O[C@@H]1c2c(Cl)cccc2C[C@@H]1O` [Example 64, (1R, 2S)-7-chloro-2-hydroxy-2,3-dihydro-1H-inden-1-yl carbamate], the “CFA model Peak Time” value in series [1] is 0.5 h. Further, the “MES test (po) Peak time” value in series [2] was found to be 2 h; in series [3], 1 h. Also, in series [4], the “scPTZ test (ip) peak time” value is given as 0.5 h. In series [5], the “Lithium pilocarpine model (pre) peak time” value (“Lithium pilocarpine model” for short) is recorded as 1 h.
With `NC(=O)O[C@@H]1Cc2cccc(Cl)c2[C@@H]1O` [Example 51, (1S, 2R)-7-chloro-1-hydroxy-2,3-dihydro-1H-inden-2-yl carbamate], the “CFA model Peak Time” value in series [1] was found to be 0.5 h. Further, the “MES test (po) Peak time” value in series [2] amounted to 0.5 h; in series [3], 4 h. In addition, the “scPTZ test (ip) peak time” value in series [4] amounted to 1 h.
As for `NC(=O)O[C@H]1Cc2cccc(Cl)c2[C@@H]1O` [Example 54, (1S, 2S)-7-chloro-1-hydroxy-2,3-dihydro-1H-inden-2-yl carbamate], the “MES test (po) Peak time” value in series [2] stood at 0.5 h; in series [3] it was 2 h. Also, the “Lithium pilocarpine model” value in series [5] was 0.5 h.
As for `NC(=O)O[C@H]1c2c(Cl)cccc2C[C@H]1O` [Example 63, (1S, 2R)-7-chloro-2-hydroxy-2,3-dihydro-1H-inden-1-yl carbamate], the “CFA model Peak Time” value in series [1] is recorded as 0.5 h. Further, the “MES test (po) Peak time” value in series [2] and in series [3] was 0.5 h throughout. Also, the “scPTZ test (ip) peak time” value in series [4] came out at 0.5 h.
On to `NC(=O)O[C@@H]1Cc2cccc(F)c2[C@@H]1O` [Example 55, (1S, 2R)-7-fluoro-1-hydroxy-2,3-dihydro-1H-inden-2-yl carbamate], for which the “CFA model Peak Time” value in series [1] is given as 0.5 h. Further, the “MES test (po) Peak time” value in series [2] is reported as 2 h. The “Lithium pilocarpine model” value in series [5] is listed as 1 h.
With “8-chloro-1-hydroxy-1,2,3,4-tetrahydronaphthalen-2-yl carbamate (mixture of SR & RS) [Example 3]”, the “CFA model Peak Time” value in series [1] is listed as 0.5 h. For the same molecule, the “MES test (po) Peak time” value in series [2] and in series [3] was 1 h in each case. In addition, the “PTZ test (ip) Peak time” value in series [6] was 0.5 h.
Take `NC(=O)O[C@H]1CCc2cccc(Cl)c2[C@@H]1O` [Example 5, (1S, 2S)-8-chloro-1-hydroxy-1,2,3,4-tetrahydronaphthalen-2-yl carbamate]: the “CFA model Peak Time” value in series [1] amounted to 0.5 h. Also, in series [2], the “MES test (po) Peak time” value turned out to be 2 h. In addition, the “PTZ test (ip) Peak time” value in series [6] came to 2 h.
Take `NC(=O)O[C@H]1CCc2cccc(Cl)c2[C@H]1O` [Example 2, (1R, 2S)-8-chloro-1-hydroxy-1,2,3,4-tetrahydronaphthalen-2-yl carbamate]: the “CFA model Peak Time” value in series [1] was found to be 0.5 h. The “MES test (po) Peak time” value in series [2] and in series [3] was 0.5 h in each case. Moreover, in series [6], the “PTZ test (ip) Peak time” value was 0.5 h. The “scPTZ test (ip) peak time” value in series [4] is on record as 1 h. Further, in series [5], the “Lithium pilocarpine model” value was found to be 1 h. For the same molecule, the “PIC(ip) Peak Time” value in series [7] amounted to 1 h.
With `NC(=O)O[C@H]1c2c(F)cccc2CC[C@H]1O` [Example 25, (1S, 2R)-8-fluoro-2-hydroxy-1,2,3,4-tetrahydronaphthalen-1-yl carbamate], the “MES test (po) Peak time” value in series [2] and in series [3] was 1 h throughout. The “Lithium pilocarpine model” value in series [5] amounted to 1 h.
In the case of `NC(=O)O[C@H]1c2c(Cl)cccc2CC[C@H]1O` [Example 18, (1S, 2R)-8-chloro-2-hydroxy-1,2,3,4-tetrahydronaphthalen-1-yl carbamate], the “Writhing test Peak Time” value in series [8] was 0.5 h. For the same molecule, the “CFA model Peak Time” value in series [1] came out at 0.5 h. For the same molecule, the “MES test (po) Peak time” value in series [2] and in series [3] was 1 h throughout. The “scPTZ test (ip) peak time” value in series [4] is 0.5 h.
